Laboratory results from publication doi:10.1101/2024.11.15.623168.
Results are given in words; binding and its absence hold for the method and conditions named. Some binding calls cover weakened binding; strength is not graded here.

Molecular target: T1, RecA (E. coli), P0A7G6
T1 chain: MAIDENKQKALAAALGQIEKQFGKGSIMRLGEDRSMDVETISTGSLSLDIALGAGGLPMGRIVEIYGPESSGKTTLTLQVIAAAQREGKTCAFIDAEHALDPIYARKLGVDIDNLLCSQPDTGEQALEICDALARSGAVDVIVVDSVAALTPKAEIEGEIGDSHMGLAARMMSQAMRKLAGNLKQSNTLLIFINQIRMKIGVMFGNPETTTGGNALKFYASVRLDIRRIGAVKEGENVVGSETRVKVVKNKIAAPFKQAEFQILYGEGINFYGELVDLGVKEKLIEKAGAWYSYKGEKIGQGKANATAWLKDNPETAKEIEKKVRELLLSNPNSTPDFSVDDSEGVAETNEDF
Test: two-hybrid
Details: remark: other sources report otherwise

B1: RecN, P05824 1-553 (protein)
chain: MLAQLTISNFAIVRELEIDFHSGMTVITGETGAGKSIAIDALGLCLGGRAEADMVRTGAARADLCARFSLKDTPAALRWLEENQLEDGHECLLRRVISSDGRSRGFINGTAVPLSQLRELGQLLIQIHGQHAHQLLTKPEHQKFLLDGYANETSLLQEMTARYQLWHQSCRDLAHHQQLSQERAARAELLQYQLKELNEFNPQPGEFEQIDEEYKRLANSGQLLTTSQNALALMADGEDANLQSQLYTAKQLVSELIGMDSKLSGVLDMLEEATIQIAEASDELRHYCDRLDLDPNRLFELEQRISKQISLARKHHVSPEALPQYYQSLLEEQQQLDDQADSQETLALAVTKHHQQALEIARALHQQRQQYAEELAQLITDSMHALSMPHGQFTIDVKFDEHHLGADGADRIEFRVTTNPGQPMQPIAKVASGGELSRIALAIQVITARKMETPALIFDEVDVGISGPTAAVVGKLLRQLGESTQVMCVTHLPQVAGCGHQHYFVSKETDGAMTETHMQSLNKKARLQELARLLGGSEVTRNTLANAKELLAA
- binding: binds
